Data source: PubChem BioAssay AID743121 (NCATS, 2013)

- Purpose: 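Knock-downs that sensitise breast cancer cells to camptothecin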 (primary screen)
- Cell system: MDA-MB-231 cells, a human breast cancer line
- Reagents: single siRNA against human genes, 20 nM siRNA (0.8 pmol per well)
- Timing: 120 h (drug added 48 h after transfection, read 72 h later)
- Conditions: camptothecin 20 nM (about EC30) for 72 h; vehicle 0.1% DMSO in parallel plates
- Measurement: 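Cell viability by ATP luminescence (CellTiter-Glo) as % of non-targeting siRNA wells, and the log2 ratio of viability without drug over viability with camptothecin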
- Direction: log2 vehicle/camptothecin viability: higher = stronger sensitisation to camptothecin; viability with camptothecin: higher = more viable cells
- Units: viability with camptothecin in % of control
- Hit rule: 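Each gene scored by redundant siRNA activity (RSA) over its individual siRNA ratios; a gene is called active at p < 0.001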
Shown is one part, drawn at random, of about 26,000 reagents tested. Over the whole deposit, 167 (0.63%) are marked active. 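Calls are per gene from RSA p-values that are not deposited; an individual active-marked siRNA can sensitise only weakly.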 Reagents against one gene are numbered here. Further read-outs or replicates are left out here.

For CACNA1H #1, what was measured?
log2 vehicle/camptothecin viability: 0.215; viability with camptothecin: 2.98; call: inactive

Which result is listed for CACNA1H #2?
log2 vehicle/camptothecin viability: -0.0986; viability with camptothecin: 56.8; call: inactive

What is on record for CACNA1H #3?
log2 vehicle/camptothecin viability: 0.0777; viability with camptothecin: 29.3; call: inactive

With CACNA1H #4, how do the results read?
log2 vehicle/camptothecin viability: 0.271; viability with camptothecin: 56.5; call: inactive

How did the screen score IL2RA #1?
log2 vehicle/camptothecin viability: -0.32; viability with camptothecin: 113; call: inactive

With IL2RA #2, what does the deposit list?
log2 vehicle/camptothecin viability: -0.108; viability with camptothecin: 81.9; call: inactive

What is on record for IL2RA #3?
log2 vehicle/camptothecin viability: 0.205; viability with camptothecin: 101; call: inactive

What did the screen give for IL2RA #4?
log2 vehicle/camptothecin viability: -0.306; viability with camptothecin: 105; call: inactive

For PIM2 #1, how do the results read?
log2 vehicle/camptothecin viability: -0.207; viability with camptothecin: 105; call: inactive

For PIM2 #2, what does the deposit list?
log2 vehicle/camptothecin viability: -0.04; viability with camptothecin: 68.5; call: inactive

Which result is listed for PIM2 #3?
log2 vehicle/camptothecin viability: -0.104; viability with camptothecin: 55.3; call: inactive

How did the screen score PIM2 #4?
log2 vehicle/camptothecin viability: -0.109; viability with camptothecin: 107; call: inactive

What did the screen give for TRPV4 #1?
log2 vehicle/camptothecin viability: -0.506; viability with camptothecin: 35.6; call: inactive

For TRPV4 #2, what was measured?
log2 vehicle/camptothecin viability: -0.401; viability with camptothecin: 69.7; call: inactive

With TRPV4 #3, what does the deposit list?
log2 vehicle/camptothecin viability: -0.153; viability with camptothecin: 65.3; call: inactive

With TRPV4 #4, what was measured?
log2 vehicle/camptothecin viability: 0.0755; viability with camptothecin: 92.7; call: inactive

With CLCN1 #1, how do the results read?
log2 vehicle/camptothecin viability: 0.0813; viability with camptothecin: 92.9; call: inactive

What did the screen give for CLCN1 #2?
log2 vehicle/camptothecin viability: -0.117; viability with camptothecin: 109; call: inactive

With CLCN1 #3, how do the results read?
log2 vehicle/camptothecin viability: -0.339; viability with camptothecin: 67.6; call: inactive

What did the screen give for CLCN1 #4?
log2 vehicle/camptothecin viability: 0.0154; viability with camptothecin: 56.7; call: inactive

With NR0B2 #1, what was measured?
log2 vehicle/camptothecin viability: 0.0467; viability with camptothecin: 99.5; call: inactive

What did the screen give for NR0B2 #2?
log2 vehicle/camptothecin viability: -0.289; viability with camptothecin: 115; call: inactive

For NR0B2 #3, what does the deposit list?
log2 vehicle/camptothecin viability: 0.0595; viability with camptothecin: 50.6; call: inactive

Which result is listed for NR0B2 #4?
log2 vehicle/camptothecin viability: -0.521; viability with camptothecin: 110; call: inactive

Individual results from above:
IL2RA #3, viability with camptothecin: 101
Under “call”, IL2RA #4 shows inactive
Under “call”, TRPV4 #4 has inactive

The list goes on:
With POR #1, what was measured?
log2 vehicle/camptothecin viability: -0.226; viability with camptothecin: 59.5; call: inactive

With POR #2, what was measured?
log2 vehicle/camptothecin viability: -0.358; viability with camptothecin: 86.7; call: inactive

With POR #3, what was measured?
log2 vehicle/camptothecin viability: -0.08; viability with camptothecin: 93.3; call: inactive

How did the screen score POR #4?
log2 vehicle/camptothecin viability: -0.0897; viability with camptothecin: 93; call: inactive

For LTBP1 #1, how do the results read?
log2 vehicle/camptothecin viability: 0.116; viability with camptothecin: 69.8; call: inactive

With LTBP1 #2, what was measured?
log2 vehicle/camptothecin viability: -0.301; viability with camptothecin: 87.8; call: inactive

For LTBP1 #3, what was measured?
log2 vehicle/camptothecin viability: -0.0868; viability with camptothecin: 86.8; call: inactive

For LTBP1 #4, what was measured?
log2 vehicle/camptothecin viability: -0.239; viability with camptothecin: 74.2; call: inactive

For NCOA6 #1, how do the results read?
log2 vehicle/camptothecin viability: -0.175; viability with camptothecin: 62.9; call: inactive

Which result is listed for NCOA6 #2?
log2 vehicle/camptothecin viability: -0.189; viability with camptothecin: 78; call: inactive

For NCOA6 #3, what was measured?
log2 vehicle/camptothecin viability: -0.447; viability with camptothecin: 40; call: inactive

With NCOA6 #4, what does the deposit list?
log2 vehicle/camptothecin viability: -0.223; viability with camptothecin: 102; call: inactive
